Experimental data as given in patent US8440804B2, “Polypeptides having modulatory effects on cells” (Ecole Normale Superieure de Lyon, priority 2006, dated 2013).
For at least one compound, name, drawing or mass did not settle the structure.

Columns and labels:
various cells = conditions: reviewed in reference (24); cited from earlier work
[1] = tested on: Bad phosphorylation (phosphatase activity of calcineurin in cells); test: Monitoring of Bad phosphorylation in HeLa cells (western blot); assay type: cell-based, human; conditions: 0.5 μM FK506
Method: (B) Monitoring of BAD phosphorylation in cultured cells. Hela-Tet cells were transfected with plasmids directing the transient expression of BAD, CNAβ, CNB and peptide aptamers R5G42, R5G52 or R7G44. Transfected cells were treated or not with 500 nM FK506. The expression level of BAD and the phosphorylation of serine 112 and 136 residues were monitored by western blot experiments using specific antibodies.
The inventors set out to confirm this finding in human cells. Bad is a key pro-apoptotic protein whose activity is tightly regulated by its phosphorylation status, itself controlled by the balanced activity of several protein kinases and calcineurin. Therefore, the phosphatase activity of calcineurin in cells can be monitored by examining Bad phosphorylation. HeLa cells were transfected with plasmids directing the expression of Bad, CNAβ, CNB and either R5G42, R5G52 or R7G44.
The peptide aptamer coding genes were cloned into pPEAt (a pCEP4-based vector that bears a tetracyclin-inducible promoter and a hygromycin resistance gene), as described above (“cell proliferation assay”).
4×10^5 Hela-tet cells/well were seeded in a 6-well plate 24 h before transfection. […] The lysates were centrifuged to remove cellular debris and the protein content was quantified using the microBCA protein assay kit (Pierce). […]

C=CC[C@@H]1/C=C(\C)C[C@H](C)C[C@H](OC)[C@H]2O[C@@](O)(C(=O)C(=O)N3CCCC[C@H]3C(=O)O[C@H](/C(C)=C/[C@@H]3CC[C@@H](O)[C@H](OC)C3)[C@H](C)[C@@H](O)CC1=O)[C@H](C)C[C@@H]2OC [FK506, reference compound]
antiproliferative activity (various cells): weaker antiproliferative activity
reversal of R5G42-induced dephosphorylation of Bad on Serine 136 [1]: totally reversed
